Measured values as given in patent US20250145711A1.
Results are given in words; binding and its absence hold for the method and conditions named. Some entries that bind do so weakly or less than the wild type. Each block holds one binder with its values, some of them ahead of it.

Amino acid sequences for entries named in this document (tags omitted). Residues count along the entry.
UniProt P40259, residues 29-159: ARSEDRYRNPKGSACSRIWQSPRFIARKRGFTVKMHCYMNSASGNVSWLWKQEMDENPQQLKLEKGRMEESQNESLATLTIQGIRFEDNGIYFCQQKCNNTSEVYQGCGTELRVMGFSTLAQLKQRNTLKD

Experiments:
[1] = target: TRCW5 antigen (CD3δε-Fc-Avi); assay: ELISA / cell binding after heat
[2] = target: TRCW5 antigen (CD3δε-Fc-Avi); assay: ELISA: biotinylated TRCW5 on streptavidin plates at the antigen concentration of the x axis, E. coli scFv supernatant, anti-HA-HRP, luminescence
[3] = target: CD79b (HDX-MS antigen) (human) (UniProt P40259); assay: HDX-MS

binding [1]: binds
B1: CD3B2089 (scFv)
scFv: QVQLVQSGAEVKKPGSSVKVSCKASGYTFTRSTMHWVRQAPGQGLEWMGYINPSSAYTNYAQKFQGRVTLTADKSTSTAYMELSSLRSEDTAVYYCASPQVHYDYNGFPYWGQGTLVTVSSGGSEGKSSGSGSESKSTGGSEIVLTQSPATLSASPGERVTLSCSASSSVSYMNWYQQKPGQAPRRWIYDSSKLASGVPARFSGSGSGRDYTLTISSLEPEDFAVYYCQQWSRNPPTFGGGTKVEIK

binding [2]: no binding (tested: 10 ug/ml (antigen))
B2: CD3B1134 (scFv)
scFv: DIQLTQSPSSLSASVGDRVTITCSASSSVSYMNWYQQKPGTSPKRLIYDSSKLASGVPSRFSGSGSGTDYTLTISSLQPEDFATYYCQQWSRNPPTFGGGTKVEIKGGSEGKSSGSGSESKSTGGSEVQLVQSGAEVKKPGESLRISCKASGYTFTRSTMHWVRQMPGKGLEWMGYINPSSAYTNYNPSFQGHVTLSADKSISTAYLQWSSLKASDTAMYYCARPQVHYDYNGFPYWGQGTLVTVSS

binding [3]: binds
B3: CD9B643 (antibody, V domains shown)
VH: QVQLQESGPGLVKPSQTLSLTCTVSGVSISNYYWSWIRQPPGKGLEWIGRISPSGRTNYNPSLKSRVTMSLDASKNQFSLKLSSVTAADTAVYYCARGEYSGTYSYSFDIWGQGTMVTVSS
VL: DIQMTQSPSSLSASVGDRVTITCRSSQSLFDSDDGNTYLDWFQQKPGQSPKLLIQTLSYRASGVPSRFSGSGSGTDFTLTISSLQPEDFATYYCMQRMEFPLTFGGGTKVEIKR
